We go through 21 targets from the supplement of paper PMC10849652.

By UniProt entry, the sequences of proteins in these tests, tags left out. Where a name states a change or a piece, a line headed by the entry shows the natural chain unless it says otherwise.
UniProt Q8NDV3: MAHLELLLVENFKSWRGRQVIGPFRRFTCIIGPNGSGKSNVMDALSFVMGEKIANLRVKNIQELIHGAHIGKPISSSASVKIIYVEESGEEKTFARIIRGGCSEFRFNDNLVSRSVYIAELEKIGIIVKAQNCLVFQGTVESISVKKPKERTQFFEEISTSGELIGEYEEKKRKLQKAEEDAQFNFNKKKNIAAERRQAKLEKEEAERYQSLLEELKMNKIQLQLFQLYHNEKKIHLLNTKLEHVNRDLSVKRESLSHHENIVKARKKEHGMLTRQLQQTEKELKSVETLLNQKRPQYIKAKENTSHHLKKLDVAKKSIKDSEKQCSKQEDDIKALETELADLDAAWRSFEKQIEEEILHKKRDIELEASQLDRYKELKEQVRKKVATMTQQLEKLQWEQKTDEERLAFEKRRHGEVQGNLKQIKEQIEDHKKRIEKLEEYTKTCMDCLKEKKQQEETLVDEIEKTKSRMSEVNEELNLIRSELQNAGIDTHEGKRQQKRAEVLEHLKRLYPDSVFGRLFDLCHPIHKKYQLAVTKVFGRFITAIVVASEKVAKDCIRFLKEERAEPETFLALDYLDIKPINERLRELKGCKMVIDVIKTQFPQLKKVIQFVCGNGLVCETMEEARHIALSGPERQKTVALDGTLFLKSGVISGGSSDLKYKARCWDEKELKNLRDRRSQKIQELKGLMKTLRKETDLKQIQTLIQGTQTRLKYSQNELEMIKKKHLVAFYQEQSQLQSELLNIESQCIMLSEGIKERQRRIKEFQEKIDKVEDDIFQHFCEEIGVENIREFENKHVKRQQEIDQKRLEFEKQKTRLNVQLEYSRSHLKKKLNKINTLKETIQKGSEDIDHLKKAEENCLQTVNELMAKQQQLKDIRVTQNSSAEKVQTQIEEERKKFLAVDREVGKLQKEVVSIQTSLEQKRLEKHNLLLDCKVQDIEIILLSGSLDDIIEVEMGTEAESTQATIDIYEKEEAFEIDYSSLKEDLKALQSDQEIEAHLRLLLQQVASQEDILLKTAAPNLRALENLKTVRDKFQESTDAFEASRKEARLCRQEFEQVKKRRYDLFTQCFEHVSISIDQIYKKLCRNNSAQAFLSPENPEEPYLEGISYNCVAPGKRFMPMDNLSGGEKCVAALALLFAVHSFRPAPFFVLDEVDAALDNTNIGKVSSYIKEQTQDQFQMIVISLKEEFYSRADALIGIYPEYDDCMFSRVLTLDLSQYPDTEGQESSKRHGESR
UniProt Q9Y5W7: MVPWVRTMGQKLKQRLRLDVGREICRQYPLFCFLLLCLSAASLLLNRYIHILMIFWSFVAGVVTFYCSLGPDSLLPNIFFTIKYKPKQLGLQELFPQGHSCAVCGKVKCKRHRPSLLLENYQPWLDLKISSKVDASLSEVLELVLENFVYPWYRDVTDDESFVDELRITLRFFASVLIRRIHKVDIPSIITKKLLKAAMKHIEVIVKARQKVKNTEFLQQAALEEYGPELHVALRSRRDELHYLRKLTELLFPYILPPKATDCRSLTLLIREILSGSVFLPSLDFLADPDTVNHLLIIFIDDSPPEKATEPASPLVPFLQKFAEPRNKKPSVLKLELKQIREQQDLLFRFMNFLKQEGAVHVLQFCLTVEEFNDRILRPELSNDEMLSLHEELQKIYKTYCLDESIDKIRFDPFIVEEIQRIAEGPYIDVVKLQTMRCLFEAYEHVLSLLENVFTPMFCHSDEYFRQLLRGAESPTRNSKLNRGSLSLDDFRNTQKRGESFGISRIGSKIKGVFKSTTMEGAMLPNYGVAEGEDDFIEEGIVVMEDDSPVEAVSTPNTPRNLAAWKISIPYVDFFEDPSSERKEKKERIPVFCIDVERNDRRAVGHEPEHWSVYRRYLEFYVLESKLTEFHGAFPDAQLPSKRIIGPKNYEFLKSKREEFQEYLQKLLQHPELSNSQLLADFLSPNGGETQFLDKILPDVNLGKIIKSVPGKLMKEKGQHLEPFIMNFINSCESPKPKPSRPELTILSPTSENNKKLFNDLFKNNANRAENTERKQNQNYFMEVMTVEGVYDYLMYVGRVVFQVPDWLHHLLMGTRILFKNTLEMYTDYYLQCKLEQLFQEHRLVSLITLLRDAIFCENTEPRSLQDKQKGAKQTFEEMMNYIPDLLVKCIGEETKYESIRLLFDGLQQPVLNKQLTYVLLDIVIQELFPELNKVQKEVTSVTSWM
UniProt Q9H7B4: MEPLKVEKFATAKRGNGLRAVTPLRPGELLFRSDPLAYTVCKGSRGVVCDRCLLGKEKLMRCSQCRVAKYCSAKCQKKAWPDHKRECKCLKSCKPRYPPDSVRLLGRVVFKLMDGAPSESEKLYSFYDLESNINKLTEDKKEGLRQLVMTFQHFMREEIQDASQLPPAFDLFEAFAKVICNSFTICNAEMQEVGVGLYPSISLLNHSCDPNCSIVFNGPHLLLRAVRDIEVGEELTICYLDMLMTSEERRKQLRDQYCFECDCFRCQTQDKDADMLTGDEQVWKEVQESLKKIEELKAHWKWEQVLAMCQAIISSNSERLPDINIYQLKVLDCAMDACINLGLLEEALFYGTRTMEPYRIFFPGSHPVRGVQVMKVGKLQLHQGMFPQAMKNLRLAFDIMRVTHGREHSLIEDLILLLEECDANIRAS
UniProt Q92966: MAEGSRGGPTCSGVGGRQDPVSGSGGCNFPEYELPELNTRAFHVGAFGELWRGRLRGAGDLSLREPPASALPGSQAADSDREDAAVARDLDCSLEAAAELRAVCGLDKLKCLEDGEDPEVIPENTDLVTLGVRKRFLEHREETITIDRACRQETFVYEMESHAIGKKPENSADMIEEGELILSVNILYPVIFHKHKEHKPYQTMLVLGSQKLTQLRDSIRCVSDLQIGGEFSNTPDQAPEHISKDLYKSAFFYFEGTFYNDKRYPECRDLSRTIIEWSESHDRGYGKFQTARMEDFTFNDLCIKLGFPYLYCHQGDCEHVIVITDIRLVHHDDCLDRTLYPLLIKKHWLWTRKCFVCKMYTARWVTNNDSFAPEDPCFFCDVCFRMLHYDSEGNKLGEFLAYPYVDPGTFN
UniProt P58511: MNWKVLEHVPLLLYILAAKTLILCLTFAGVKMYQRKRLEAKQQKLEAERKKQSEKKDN
UniProt Q02086: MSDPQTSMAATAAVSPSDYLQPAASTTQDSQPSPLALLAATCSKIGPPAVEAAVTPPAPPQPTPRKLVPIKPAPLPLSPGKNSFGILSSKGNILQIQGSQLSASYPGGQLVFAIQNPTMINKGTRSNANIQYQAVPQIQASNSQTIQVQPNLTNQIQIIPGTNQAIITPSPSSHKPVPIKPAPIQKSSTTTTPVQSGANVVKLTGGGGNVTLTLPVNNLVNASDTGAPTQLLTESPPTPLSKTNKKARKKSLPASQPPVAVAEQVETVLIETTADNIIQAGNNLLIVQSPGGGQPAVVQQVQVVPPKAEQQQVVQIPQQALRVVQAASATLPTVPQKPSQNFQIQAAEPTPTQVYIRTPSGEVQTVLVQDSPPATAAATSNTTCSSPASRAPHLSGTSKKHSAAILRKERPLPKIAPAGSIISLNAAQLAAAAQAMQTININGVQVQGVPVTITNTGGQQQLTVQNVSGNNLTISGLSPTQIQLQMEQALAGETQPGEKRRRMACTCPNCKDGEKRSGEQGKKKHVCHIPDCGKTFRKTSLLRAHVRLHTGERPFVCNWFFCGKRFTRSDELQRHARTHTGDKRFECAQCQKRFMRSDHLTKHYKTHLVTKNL
UniProt O60749: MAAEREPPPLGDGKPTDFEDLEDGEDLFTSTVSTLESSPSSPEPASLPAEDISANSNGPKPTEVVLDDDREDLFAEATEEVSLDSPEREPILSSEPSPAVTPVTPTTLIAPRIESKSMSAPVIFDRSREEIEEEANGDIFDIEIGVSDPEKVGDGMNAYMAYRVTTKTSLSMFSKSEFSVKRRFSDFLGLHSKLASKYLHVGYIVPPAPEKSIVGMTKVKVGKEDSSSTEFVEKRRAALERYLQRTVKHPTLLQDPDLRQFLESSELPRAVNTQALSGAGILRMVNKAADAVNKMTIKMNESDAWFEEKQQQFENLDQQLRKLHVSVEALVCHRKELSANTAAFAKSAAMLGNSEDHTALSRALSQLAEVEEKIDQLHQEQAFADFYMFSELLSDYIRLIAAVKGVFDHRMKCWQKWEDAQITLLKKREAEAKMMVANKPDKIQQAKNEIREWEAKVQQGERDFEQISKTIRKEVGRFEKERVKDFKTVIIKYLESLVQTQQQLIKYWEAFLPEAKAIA
UniProt Q5SXM2: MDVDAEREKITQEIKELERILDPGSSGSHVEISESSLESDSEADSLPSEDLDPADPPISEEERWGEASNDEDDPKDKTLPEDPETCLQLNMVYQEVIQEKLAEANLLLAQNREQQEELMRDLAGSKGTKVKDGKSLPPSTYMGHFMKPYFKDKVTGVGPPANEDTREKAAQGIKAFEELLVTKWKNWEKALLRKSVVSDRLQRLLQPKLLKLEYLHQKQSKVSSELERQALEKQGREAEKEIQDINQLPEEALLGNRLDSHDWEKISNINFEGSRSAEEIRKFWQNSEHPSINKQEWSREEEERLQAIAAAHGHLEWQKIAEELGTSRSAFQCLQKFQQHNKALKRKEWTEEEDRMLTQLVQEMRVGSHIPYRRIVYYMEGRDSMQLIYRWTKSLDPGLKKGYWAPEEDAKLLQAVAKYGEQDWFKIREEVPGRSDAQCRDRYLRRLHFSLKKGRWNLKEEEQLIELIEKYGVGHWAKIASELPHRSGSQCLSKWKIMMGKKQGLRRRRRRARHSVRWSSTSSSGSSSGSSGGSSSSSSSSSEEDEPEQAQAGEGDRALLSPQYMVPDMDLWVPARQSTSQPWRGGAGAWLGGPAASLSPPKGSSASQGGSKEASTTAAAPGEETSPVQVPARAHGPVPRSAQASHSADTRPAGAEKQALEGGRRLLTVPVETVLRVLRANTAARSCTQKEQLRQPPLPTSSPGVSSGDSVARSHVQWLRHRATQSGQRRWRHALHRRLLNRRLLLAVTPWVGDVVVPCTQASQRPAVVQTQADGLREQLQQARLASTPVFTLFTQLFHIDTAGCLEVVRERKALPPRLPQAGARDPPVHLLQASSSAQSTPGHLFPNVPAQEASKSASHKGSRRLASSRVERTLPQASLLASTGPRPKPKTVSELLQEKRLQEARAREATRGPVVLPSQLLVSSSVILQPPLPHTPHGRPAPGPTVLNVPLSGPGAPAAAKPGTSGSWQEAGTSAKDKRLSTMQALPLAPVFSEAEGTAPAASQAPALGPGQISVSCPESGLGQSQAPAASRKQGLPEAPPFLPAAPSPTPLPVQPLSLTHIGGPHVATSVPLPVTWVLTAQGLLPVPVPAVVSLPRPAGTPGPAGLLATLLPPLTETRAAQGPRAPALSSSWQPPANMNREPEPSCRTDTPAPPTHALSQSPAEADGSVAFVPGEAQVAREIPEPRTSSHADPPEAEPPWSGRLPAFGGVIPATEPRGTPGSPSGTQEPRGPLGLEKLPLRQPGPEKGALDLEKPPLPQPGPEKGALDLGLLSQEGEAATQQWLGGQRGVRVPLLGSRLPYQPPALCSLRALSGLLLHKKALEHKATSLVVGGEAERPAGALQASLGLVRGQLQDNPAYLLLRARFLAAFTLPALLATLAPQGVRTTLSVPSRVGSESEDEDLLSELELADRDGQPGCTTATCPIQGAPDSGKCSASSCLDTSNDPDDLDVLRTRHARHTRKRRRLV
UniProt P17405: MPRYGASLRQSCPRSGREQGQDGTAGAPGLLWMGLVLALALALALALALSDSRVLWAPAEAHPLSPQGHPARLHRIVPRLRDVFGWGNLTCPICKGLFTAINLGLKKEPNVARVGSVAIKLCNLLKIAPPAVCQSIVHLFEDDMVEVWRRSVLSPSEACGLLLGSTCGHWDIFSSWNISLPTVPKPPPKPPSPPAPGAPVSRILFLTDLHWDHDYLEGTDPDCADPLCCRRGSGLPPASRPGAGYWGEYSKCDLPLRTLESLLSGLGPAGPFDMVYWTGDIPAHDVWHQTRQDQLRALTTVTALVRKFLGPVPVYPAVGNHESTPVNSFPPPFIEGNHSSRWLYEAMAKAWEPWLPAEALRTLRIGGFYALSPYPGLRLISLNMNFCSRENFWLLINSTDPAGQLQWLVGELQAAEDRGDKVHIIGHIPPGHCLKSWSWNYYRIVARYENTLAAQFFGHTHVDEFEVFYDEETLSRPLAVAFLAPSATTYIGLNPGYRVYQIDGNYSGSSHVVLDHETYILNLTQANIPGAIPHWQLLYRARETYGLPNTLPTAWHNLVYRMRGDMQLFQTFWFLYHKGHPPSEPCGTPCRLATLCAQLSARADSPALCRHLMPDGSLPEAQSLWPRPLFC
UniProt Q16560: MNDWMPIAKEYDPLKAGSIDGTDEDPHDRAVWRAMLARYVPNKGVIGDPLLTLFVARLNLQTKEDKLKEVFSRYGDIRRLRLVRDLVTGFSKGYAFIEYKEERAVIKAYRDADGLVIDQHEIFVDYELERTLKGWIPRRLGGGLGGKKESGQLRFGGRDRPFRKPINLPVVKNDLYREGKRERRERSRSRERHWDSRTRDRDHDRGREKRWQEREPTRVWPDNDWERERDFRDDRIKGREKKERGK

This is one part of the list.

Compound in one assay: COC(=O)N[C@@H](C)CNc1nccc(-c2cn(C(C)C)nc2-c2cc(Cl)cc(NS(C)(=O)=O)c2F)n1 [encorafenib]
The experiment in a line: log2 fold change, soluble protein after heating vs DMSO (PISA); higher = thermal stabilisation; K562 lysate, 10 uM; active = over 0.2 and 3.5 SD of the protein, either way, in both replicates (recomputed). Summed up:
(§1)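 Dounce homogenisation of K562 pellets in PBS pH 7.4 with 1 mM MgCl2 produced a crude extract, used at 1 mg/mL protein. Exposure to 10 μM compound lasted 30 min, and aliquots were then heated for 3 min across 48°C-58°C, pooled and brought to 0.5% NP-40 at 4°C. The supernatant after 21,000xg for 90 min was quantified by TMTpro 16plex LC-MS/MS with channel sums equalised. Duplicate values are given as log-two fold change in thermal stability relative to solvent controls.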
For the target SMPDL3A (UniProt Q92484), the log2 fold change was inactive: 0.005. On the same count and under the same terms, in the case of SMC1B isoform 3 (UniProt Q8NDV3) it was inactive: 0.039; in that of SNX14 (UniProt Q9Y5W7), inactive: -0.048. SMYD3 (UniProt Q9H7B4): the log2 fold change is inactive: 0.022. Take SNAPC3 (UniProt Q92966): the log2 fold change is inactive: -0.136. For SOD3 (UniProt P08294), the log2 fold change is inactive: 0.207. On to SNX25 (UniProt Q9H3E2), for which the log2 fold change is inactive: -0.007. Regarding SMIM11A (UniProt P58511), the log2 fold change was inactive: 0.357.

With SP2 (UniProt Q02086), the log2 fold change was inactive: 0.063. SNX2 isoform 2 (UniProt O60749): the log2 fold change was inactive: -0.117.

Consider SNRPD2 (UniProt K7EJB5), for which the log2 fold change is inactive: -0.069. Take SNAPC4 (UniProt Q5SXM2): the log2 fold change is inactive: 0.036.

Compound in another assay: COC(=O)[C@H](CCSC)NC(=O)C1=C(C=C(C=C1)NC[C@H](CS)N)C2=CC=CC=C2
The assay is described as above. An outline of the steps:
as §1
SMPDL3A (UniProt Q92484): the log2 fold change was inactive: 0.069. Same read-out and setting: the value for SMC1B isoform 3 (UniProt Q8NDV3) was inactive: -0.03; that for SNX14 (UniProt Q9Y5W7) was inactive: 0.03; that for SMYD3 (UniProt Q9H7B4) was inactive: 0.071. The same measure, in the same setting: in the case of SNAPC3 (UniProt Q92966) it was inactive: 0.123; in that of SOD3 (UniProt P08294), inactive: -0.057. Turning to SNX25 (UniProt Q9H3E2), the log2 fold change was inactive: -0.044. In the case of SMIM11A (UniProt P58511), the log2 fold change is inactive: 0.004. As for SP2 (UniProt Q02086), the log2 fold change was inactive: -0.073.

Take SNX2 isoform 2 (UniProt O60749): the log2 fold change is inactive: 0.189. Same read-out and setting: the value for SNRPD2 (UniProt K7EJB5) was inactive: 0.047; that for SNAPC4 (UniProt Q5SXM2) was inactive: 0.04.

Compound in a further assay: COc1cc(Nc2ncc3c(n2)-c2ccc(Cl)cc2C(c2c(F)cccc2OC)=NC3)ccc1C(=O)O [alisertib]
The assay is described as above. Summed up: as §1
With SNIP1 (UniProt Q8TAD8), the log2 fold change was inactive: -0.024. For SMC1B isoform 3 (UniProt Q8NDV3), the log2 fold change is inactive: 0.027.

Turning to SNX14 (UniProt Q9Y5W7), the log2 fold change is inactive: -0.028.

On to SMYD3 (UniProt Q9H7B4), for which the log2 fold change is inactive: -0.044. With SNAPC3 (UniProt Q92966), the log2 fold change is inactive: -0.004.

For SNRNP25 (UniProt Q9BV90), the log2 fold change was inactive: -0.078.

In the case of SNAPC1 (UniProt Q16533), the log2 fold change was inactive: 0.113. Regarding SNAPC5 (UniProt O75971), the log2 fold change is inactive: -0.035.

On to SMARCC2 isoform 3 (UniProt Q8TAQ2), for which the log2 fold change was inactive: -0.078. As to SNX33 (UniProt Q8WV41), the log2 fold change was inactive: -0.01. With SP2 (UniProt Q02086), the log2 fold change is inactive: -0.14. In the case of SMPD1 (UniProt P17405), the log2 fold change was inactive: -0.03.

SNX2 isoform 2 (UniProt O60749): the log2 fold change is inactive: -0.09. Still for that read-out and setting: the value for SNRPD2 (UniProt K7EJB5) was inactive: 0.103; that for SNAPC4 (UniProt Q5SXM2) was inactive: 0.09. On the same count and under the same terms, in the case of SON isoform 6 (UniProt P18583) it was inactive: -0.108. In the case of SNRNP35 isoform 2 (UniProt Q16560), the log2 fold change was inactive: -0.04.
